Measured values from PubChem BioAssay AID330 (DTP/NCI, 2004).
The list does not hold the whole screen: it is rich in T/C values a quarter to a half above the control, in often repeated tests (any T/C) and in doses without a T/C. Further doses and runs are listed elsewhere. T/C: endpoint of the treated group in % of that of the vehicle group. Some entries give survivors of the animals treated and no T/C: the source holds a T/C of zero for them, seemingly a mark for toxic or unscored doses. Some doses without a T/C left all or most animals alive at the check, yet need not have been tolerated: the source hardly ever lists a survival T/C far under the control, and the zero likely stands for such cases as well. Counts of survivors are from the toxicity check (mostly the fifth day) where no day follows; animals may have died later. Schedule codes are those of the source, read here as Q, the interval in days (D) or hours (H), X, the number of doses. Some entries hold several experiments; the values are given in rising order. For survival time, the PubChem record calls one and a half times the control and up active, and a quarter to a half above the control has no call in these data; cut-offs in other NCI protocols can differ. Some molecules as drawn cover several salts, stereoisomers or complexes of the source; a dose is that of the sample tested. Some T/C values are followed by the survivors on the day toxicity was checked, most often the fifth; without a count, all were alive then.

Tested on: P388 leukemia ip, CD2F1 mice, survival T/C
Assay: NCI In Vivo Anticancer Drug Screen. Data for tumor model P388 Leukemia (intraperitoneal) in CD2F1 (CDF1) mice
Settings: T/C endpoint: median survival time, higher T/C = longer survival
[1] = dose: 75.0 mg/kg/injection, schedule: Q04DX003 (ip), vehicle: water
[2] = dose: 200.0 mg/kg/injection, schedule: Q01DX001 (ip), vehicle: saline
[3] = dose: 200.0 mg/kg/injection, schedule: Q01DX005 (ip), vehicle: saline with Tween-80
[4] = dose: 50.0 mg/kg/injection, schedule: Q01DX009 (ip), vehicle: Klucel (hydroxypropylcellulose) (HPC)
[5] = dose: 100.0 mg/kg/injection, schedule: Q01DX009 (ip), vehicle: Klucel (hydroxypropylcellulose) (HPC)
[6] = dose: 200.0 mg/kg/injection, schedule: Q01DX009 (ip), vehicle: Klucel (hydroxypropylcellulose) (HPC)
[7] = dose: 50.0 mg/kg/injection, schedule: Q01DX005 (ip), vehicle: Klucel (hydroxypropylcellulose) (HPC)
[8] = dose: 100.0 mg/kg/injection, schedule: Q01DX005 (ip), vehicle: Klucel (hydroxypropylcellulose) (HPC)
[9] = dose: 200.0 mg/kg/injection, schedule: Q01DX005 (ip), vehicle: Klucel (hydroxypropylcellulose) (HPC)
[10] = dose: 400.0 mg/kg/injection, schedule: Q01DX009 (ip), vehicle: saline
[11] = dose: 50.0 mg/kg/injection, schedule: Q01DX005 (ip), vehicle: saline with Tween-80
[12] = dose: 100.0 mg/kg/injection, schedule: Q01DX005 (ip), vehicle: saline with Tween-80
[13] = dose: 6.25 mg/kg/injection, schedule: Q01DX009 (ip), vehicle: water

For `COc1cccc2c1C(=O)c1c(O)c3c(c(O)c1C2=O)CC(O)(C(C)=O)CC3OC1CC(N)C(O)C(C)O1` (stereo not given) (tested in a mixture with another compound), the T/C (dose: 9.38 mg/kg/injection, schedule: Q04DX003 (ip), vehicle: water) was 126 % of control, the T/C (dose: 18.75 mg/kg/injection, schedule: Q04DX003 (ip), vehicle: water) was 130 and 133 % of control and the T/C (dose: 37.5 mg/kg/injection, schedule: Q04DX003 (ip), vehicle: water) was 126, 126 [5 of 6 alive on day 9], 129, 145 % of control. For the same compound, the T/C [1] was 131 % of control.
`O=[N+]([O-])c1ccc(N/N=C\c2c(Cl)n(-c3ccccc3)c3ccccc23)cc1` was tested, and the survivor count (dose: 100.0 mg/kg/injection, schedule: Q01DX001 (ip), vehicle: saline) was 6 of 6 and the survivor count [2] was 6 of 6.
`CCOC(OCC)/C(=C\N(C)C)N=C(C#N)C#N` was tested, and the survivor count [3] was 0 of 6.
For `CCC(/C=C/c1ccccc1)=N\NC(=O)c1ccc(Cl)c(Cl)c1`, the survivor count (dose: 120.0 mg/kg/injection, schedule: Q01DX005 (ip), vehicle: saline with Tween-80) was 6 of 6.
`CN1CCCSC1=S` was tested, and the survivor count [4] was 3 of 6, the survivor count [5] was 0 of 6 and the survivor count [6] was 0 of 6.
`CC(=O)CC(=O)c1ccc(F)cc1.CC(=O)CC(=O)c1ccc(F)cc1.[Cu]` was tested, and the survivor count (dose: 40.0 mg/kg/injection, schedule: Q01DX009 (ip), vehicle: saline with Tween-80) was 0 of 6, the survivor count (dose: 50.0 mg/kg/injection, schedule: Q01DX009 (ip), vehicle: saline with Tween-80) was 0 of 6 and the survivor count (dose: 100.0 mg/kg/injection, schedule: Q01DX009 (ip), vehicle: saline with Tween-80) was 0 of 6. For the same compound, the survivor count (dose: 200.0 mg/kg/injection, schedule: Q01DX009 (ip), vehicle: saline with Tween-80) was 0 of 6.
For `COc1cccc2c1C(=O)c1c(O)c3c(c(O)c1C2=O)C[C@@](O)(/C(C)=N\NC(N)=O)C[C@@H]3OC1CC(N)C(O)C(C)O1` (stereo not given in full), the T/C (dose: 3.12 mg/kg/injection, schedule: Q01DX009 (ip), vehicle: saline) was 149 % of control, the survivor count (dose: 25.0 mg/kg/injection, schedule: Q01DX009 (ip), vehicle: saline) was 6 of 6 and the survivor count (dose: 50.0 mg/kg/injection, schedule: Q01DX009 (ip), vehicle: saline) was 2 of 6.
`O=C(Nc1ccc(Cl)cc1)Nc1nnc(COc2ccc(Cl)c(Cl)c2)o1` was tested, and the survivor count (dose: 30.0 mg/kg/injection, schedule: Q01DX005 (ip), vehicle: saline with Tween-80) was 6 of 6 and the survivor count (dose: 60.0 mg/kg/injection, schedule: Q01DX005 (ip), vehicle: saline with Tween-80) was 6 of 6.
For `COc1ccc2c(C(=O)c3ccccc3)c3[n+](cc2c1OC)CCc1cc2c(cc1-3)OCO2`, the survivor count (dose: 25.0 mg/kg/injection, schedule: Q01DX005 (ip), vehicle: Klucel (hydroxypropylcellulose) (HPC)) was 2 of 5, the survivor count [7] was 0 of 6 and the survivor count [8] was 0 of 6. The survivor count [9] was 0 of 6.
For `O=C(Nc1nncs1)c1cccs1`, the T/C (dose: 200.0 mg/kg/injection, schedule: Q04DX002 (ip), vehicle: saline with Tween-80) was 133 % of control, the T/C (dose: 400.0 mg/kg/injection, schedule: Q04DX002 (ip), vehicle: saline with Tween-80) was 145 and 149 % of control and the T/C (dose: 400.0 mg/kg/injection, schedule: Q04DX002 (ip), vehicle: saline) was 132 % of control. For the same compound, the T/C (dose: 600.0 mg/kg/injection, schedule: Q04DX002 (ip), vehicle: saline) was 149 % of control.
With `CNC(=O)OCc1ccc(NCCN(C)C)c2c(=O)c3cc(O)ccc3sc12` the T/C (dose: 1.56 mg/kg/injection, schedule: Q01DX005 (ip), vehicle: saline with Tween-80) was 134 % of control, the T/C (dose: 3.12 mg/kg/injection, schedule: Q01DX005 (ip), vehicle: saline with Tween-80) was 130 % of control and the T/C (dose: 6.25 mg/kg/injection, schedule: Q01DX005 (ip), vehicle: saline with Tween-80) was 127 % of control.
With `O=[N+]([O-])c1ccc([Se]CCO)c([N+](=O)[O-])c1` the survivor count [6] was 0 of 6.
For `[Cu].c1ccc2c3[n-]c(c2c1)/N=c1\[n-]/c(c2ccccc12)=N\c1[n-]c(c2ccccc12)/N=c1\[n-]/c(c2ccccc12)=N\3`, the survivor count (dose: 200.0 mg/kg/injection, schedule: Q01DX009 (ip), vehicle: saline) was 1 of 6 and the survivor count [10] was 0 of 6.
In the case of `OCNC(=S)c1ccccc1`, the survivor count [3] is reported as 0 of 5.
`CC(NNC(=S)N1CC2CCC(CC2)C1)c1nccc2ccccc12` (stereo not given) was tested, and the survivor count [11] was 2 of 5, the survivor count [12] was 2 of 5 and the survivor count [3] was 1 of 6.
In the case of `C=CCN(CC=C)P(=O)(N1CC1C)N1CC1C` (stereo not given), the T/C (dose: 2.5 mg/kg/injection, schedule: Q01DX009 (ip), vehicle: saline) is reported as 149 % of control, the survivor count (dose: 10.0 mg/kg/injection, schedule: Q01DX009 (ip), vehicle: saline) is reported as 6 of 6 and the survivor count (dose: 20.0 mg/kg/injection, schedule: Q01DX009 (ip), vehicle: saline) is reported as 4 of 6.
With `S=C(Nc1ccc(Cl)cc1)SSC(Cl)(Cl)Cl` the survivor count (dose: 100.0 mg/kg/injection, schedule: Q01DX009 (ip), vehicle: saline + alcohol) was 6 of 6 and the survivor count (dose: 200.0 mg/kg/injection, schedule: Q01DX009 (ip), vehicle: saline + alcohol) was 0 of 6.
For `C=CC(C(=O)O)S(=O)(=O)O` (stereo not given), the survivor count (dose: 80.0 mg/kg/injection, schedule: Q01DX009 (ip), vehicle: saline with Tween-80) was 2 of 6.
`O=c1oc(-c2cccc(I)c2)ns1` was tested, and the survivor count (dose: 400.0 mg/kg/injection, schedule: Q01DX009 (ip), vehicle: Klucel (hydroxypropylcellulose) (HPC)) was 4 of 6.
With `COc1cccc2c1C(=O)c1c(O)c3c(c(O)c1C2=O)CC(O)(C(O)CO)CC3OC1CC(N2CCCCC2)C(O)C(C)O1` (stereo not given) the T/C (dose: 0.78 mg/kg/injection, schedule: Q01DX009 (ip), vehicle: water) was 134 % of control, the T/C (dose: 3.13 mg/kg/injection, schedule: Q01DX009 (ip), vehicle: water) was 139 and 146 % of control and the T/C [13] was 144 % of control. The survivor count [13] was 6 of 6, the survivor count (dose: 12.5 mg/kg/injection, schedule: Q01DX009 (ip), vehicle: water) was 5 of 6 and 6 of 6 and the T/C (dose: 18.0 mg/kg/injection, schedule: Q04DX003 (ip), vehicle: water) was 134 % of control. The survivor count (dose: 25.0 mg/kg/injection, schedule: Q01DX009 (ip), vehicle: water) was 1 of 6 and 2 of 6, the T/C (dose: 37.5 mg/kg/injection, schedule: Q04DX003 (ip), vehicle: water, evaluated on day 30) was 131 % of control and the T/C (dose: 37.5 mg/kg/injection, schedule: Q04DX003 (ip), vehicle: water, evaluated on day 45) was 135 % of control [5 of 6 alive]. For the same compound, the survivor count [1] was 1 of 6 and the survivor count (dose: 150.0 mg/kg/injection, schedule: Q04DX003 (ip), vehicle: water) was 0 of 6.
In the case of `c1ccc2c(c1)C1c3cccc[n+]3C2C2C1CC1C3c4ccccc4C(C12)[n+]1ccccc13` (stereo not given), the survivor count (dose: 12.5 mg/kg/injection, schedule: Q01DX005 (ip), vehicle: saline with Tween-80) is reported as 3 of 6, the survivor count (dose: 25.0 mg/kg/injection, schedule: Q01DX005 (ip), vehicle: saline with Tween-80) is reported as 0 of 6 and the survivor count [11] is reported as 0 of 6. The survivor count [12] was 0 of 6 and the survivor count [3] was 0 of 6.
For `Nc1c(S(=O)(=O)O)cc(Nc2cccc(CO)c2)c2c1C(=O)c1ccccc1C2=O`, the survivor count (dose: 50.0 mg/kg/injection, schedule: Q01DX001 (ip), vehicle: saline) was 6 of 6 and the survivor count [2] was 5 of 6.
With `O=C(N/C=C/c1ccco1)NC1CCCCCCCCCCC1` the survivor count [7] was 4 of 5, the survivor count [8] was 5 of 5 and the survivor count [9] was 1 of 5.
`CSC(=N/O)/C(=N\O)SC` was tested, and the survivor count [5] was 5 of 6.
For `NN/C(N)=N/S(=O)(=O)c1ccccc1`, the survivor count [9] was 5 of 5.
In the case of `O=C(Oc1ccc[nH]c1=O)c1ccc(F)cc1`, the survivor count [10] is reported as 6 of 6.
`CCCCc1ccc(-n2c(C)c(COC(=O)NC)c(COC(=O)NC)c2C)cc1` was tested, and the survivor count [4] was 4 of 6 and 5 of 6.
